{"source": "PubChem BioAssay AID1508588, Peter MacCallum Cancer Centre, 2020", "purpose": "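Knock-downs boosting vemurafenib effects on melanoma cell growth or lactate release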 (primary screen)", "cell system": "human WM266.4 melanoma cells (BRAF V600 mutant)", "knock-down reagent": "siRNA pool against human genes, 40 nM", "duration": "96 h from transfection to read-out", "challenge": "vemurafenib 300 nM (about IC25), added 48 h after transfection, for 48 h; comparison arm got DMSO vehicle only", "detection": "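Ratios to non-targeting siRNA for cell gain, counted as DAPI nuclei after minus before drug and averaged over two replicates, and for absorbance-read medium lactate per cell; both binned into fold-change classes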", "direction": "cell gain with vemurafenib: higher = more cell gain than with non-targeting siRNA; lactate per cell with vemurafenib: higher = more lactate made per cell", "rule for the call": "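a knock-down counts as enhancing when its fold-change classes with vehicle and with vemurafenib, taken together, show a stronger drug effect on cell gain or lactate per cell; exact class pairs not stated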", "meaning of the calls": "active = enhances vemurafenib effect; inactive = no enhancement seen", "note": "Here is an unselected part of about 18,000 reagents tested. Of all reagents, 790 (4.4%) got an active call. 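Calls rest on a combination of fold-change classes in drug and vehicle arms, not all shown here.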 Entries without a mark were called inactive."}
{"target gene":"LIMK2","cell gain with vemurafenib":0.67,"lactate per cell with vemurafenib":1.22}
{"target gene":"ZNF160","cell gain with vemurafenib":0.27,"lactate per cell with vemurafenib":0.87}
{"target gene":"LSM11","cell gain with vemurafenib":1.08,"lactate per cell with vemurafenib":0.57}
{"target gene":"AAGAB","cell gain with vemurafenib":0.56,"lactate per cell with vemurafenib":0.42}
{"target gene":"ZNF99","cell gain with vemurafenib":0.35,"lactate per cell with vemurafenib":1.04}
{"target gene":"CS","cell gain with vemurafenib":1.04,"lactate per cell with vemurafenib":0.38}
{"target gene":"MOB2","cell gain with vemurafenib":0.6,"lactate per cell with vemurafenib":1.36}
{"target gene":"PIM1","cell gain with vemurafenib":0.7,"lactate per cell with vemurafenib":1.04}
{"target gene":"SRRM4","cell gain with vemurafenib":0.53,"lactate per cell with vemurafenib":1.56}
{"target gene":"NOL4L","cell gain with vemurafenib":0.29,"lactate per cell with vemurafenib":0.94}
{"target gene":"PIGV","cell gain with vemurafenib":0.83,"lactate per cell with vemurafenib":0.86}
{"target gene":"TMEM132B","cell gain with vemurafenib":0.65,"lactate per cell with vemurafenib":0.9}
{"target gene":"HMGA2","cell gain with vemurafenib":0.77,"lactate per cell with vemurafenib":0.53}
{"target gene":"C4orf50","cell gain with vemurafenib":0.2,"lactate per cell with vemurafenib":1.46}
{"target gene":"CAP1","cell gain with vemurafenib":1.22,"lactate per cell with vemurafenib":1.13}
{"target gene":"RIPPLY2","cell gain with vemurafenib":0.44,"lactate per cell with vemurafenib":0.77}
{"target gene":"SOWAHB","cell gain with vemurafenib":0.29,"lactate per cell with vemurafenib":1.72}
{"target gene":"DCAF13","cell gain with vemurafenib":1.02,"lactate per cell with vemurafenib":0.73}
{"target gene":"VRK1","cell gain with vemurafenib":0.86,"lactate per cell with vemurafenib":0.68}
{"target gene":"SP5","cell gain with vemurafenib":0.76,"lactate per cell with vemurafenib":0.7}
{"target gene":"APPL1","cell gain with vemurafenib":0.26,"lactate per cell with vemurafenib":1.71}
{"target gene":"ISL2","cell gain with vemurafenib":0.41,"lactate per cell with vemurafenib":0.62}
{"target gene":"TRIM51","cell gain with vemurafenib":0.54,"lactate per cell with vemurafenib":1.76}
{"target gene":"SHFL","cell gain with vemurafenib":0.88,"lactate per cell with vemurafenib":0.54}
{"target gene":"FBXO11","cell gain with vemurafenib":0.59,"lactate per cell with vemurafenib":1.52}
{"target gene":"DUSP19","cell gain with vemurafenib":0.92,"lactate per cell with vemurafenib":1.46}

Targets listed so far whose gene name starts with S or s (4):
{"target gene":"SRRM4","cell gain with vemurafenib":0.53,"lactate per cell with vemurafenib":1.56}
{"target gene":"SOWAHB","cell gain with vemurafenib":0.29,"lactate per cell with vemurafenib":1.72}
{"target gene":"SP5","cell gain with vemurafenib":0.76,"lactate per cell with vemurafenib":0.7}
{"target gene":"SHFL","cell gain with vemurafenib":0.88,"lactate per cell with vemurafenib":0.54}

The results go on.
{"target gene":"SLC12A2","cell gain with vemurafenib":0.61,"lactate per cell with vemurafenib":0.88}
{"target gene":"UBL4B","cell gain with vemurafenib":0.95,"lactate per cell with vemurafenib":0.62}
{"target gene":"ARRDC4","cell gain with vemurafenib":0.9,"lactate per cell with vemurafenib":0.72}
{"target gene":"PRORP","cell gain with vemurafenib":1.05,"lactate per cell with vemurafenib":0.38}
{"target gene":"MSANTD2","cell gain with vemurafenib":0.51,"lactate per cell with vemurafenib":1.4}
{"target gene":"DYNC2I2","cell gain with vemurafenib":0.82,"lactate per cell with vemurafenib":1.26}
{"target gene":"EFNA1","cell gain with vemurafenib":0.96,"lactate per cell with vemurafenib":0.57}
{"target gene":"PLOD1","cell gain with vemurafenib":0.83,"lactate per cell with vemurafenib":0.48}
{"target gene":"CEP128","cell gain with vemurafenib":0.92,"lactate per cell with vemurafenib":1.27}
{"target gene":"FLCN","cell gain with vemurafenib":0.27,"lactate per cell with vemurafenib":1.41}
{"target gene":"RMI1","cell gain with vemurafenib":0.83,"lactate per cell with vemurafenib":0.9}
{"target gene":"UQCRB","cell gain with vemurafenib":"0.67 (active)","lactate per cell with vemurafenib":0.48}
{"target gene":"PLGLB1","cell gain with vemurafenib":0.78,"lactate per cell with vemurafenib":0.86}
{"target gene":"RGS20","cell gain with vemurafenib":0.37,"lactate per cell with vemurafenib":0.85}
